Assay results as given in patent US12472152B2, “Molecular entrapment via homopolymer self-assembly” (Northwestern University, priority 2019, dated 2025).
Some entries share one result that the patent states for a list of compounds.

Experiment: Loading experiments: encapsulation efficiency during PPSU20 self-assembly (fluorescence of supernatant)
Format: physicochemical
Settings: text summary of Table 1, stepwise hydration strategy
Protocol: Loading experiments. For the loading of Nile red, nanogels were prepared using pure water and Nile red-containing (0.1 mg/mL) DMSO solutions of PPSU20. For the loading of water-soluble drugs, aqueous solutions of FITC (0.05 mg/mL), doxorubicin hydrochloride (1 mg/mL), dextran (1 mg/mL), albumin (various concentrations), GFP (0.2 mg/mL), RNA (0.2 mg/mL), DNA (0.2 mg/mL), and DMSO solutions of PPSU20 (25 mg/mL) were used. Typically, 100 μL of the corresponding aqueous solution were mixed stepwise (10 μL/step or 100 μL/step) with 50 μL of PPSU20 solution under vortex, then another 400 μL of water was added. After centrifugation at 16000×g for 10 min, fluorescence of the supernatant was measured and the encapsulation efficiencies were calculated.

Compound | encapsulation efficiencies (EE)
CCN(CC)c1ccc2nc3c4ccccc4c(=O)cc-3oc2c1 [Nile red] | > 95%
Dextran | > 95%
